Test results: US12016918B2 (UNIVERSITEIT LEIDEN, priority 2017, dated 2024)

Columns and labels:
[1] = general procedure: Fmoc solid-phase peptide synthesis; Tentagel S RAM resin (loading 0.23 mmol/g); preloaded leucine resin; HCTU; PyBOP/DiPEA for building block 14; settings: whole synthesis
[2] = general procedure: Fmoc solid-phase peptide synthesis; Tentagel S RAM; HCTU; PyBOP/DiPEA for building block 14; settings: whole synthesis, scale 0.05 mmol

Row | Substance | isolated mass [1] [mg] | isolated yield ([1]; scale of the general procedure 0.05 mmol) [%] | isolated mass [2] [mg] | isolated yield [2] [%]
1 | NH2C(O)NH-Cys(EtOC(O)C15H31)—SerLysLysLysLys-C(O)NH2 | 3.0 | 4 |  | 
2 | AcNH-Cys(EtOC(O)C15H31)-SerLysLysLysLys-C(O)NH2 |  |  | 5.8 | 7.7
